Measured values from publication PMC7464485, “Antimicrobial Activities of Highly Bioavailable Organic Salts and Ionic Liquids from Fluoroquinolones” (Pharmaceutics, 2020).
Read-outs that look alike come from different tables or passages of the source.

Experiments:
Assay type in all cases: cell-based
3T3 mouse fibroblasts = experiment: Cytotoxicity on 3T3 cells (MTT)
Procedure: The toxicity of the prepared FQ–OSILs and corresponding starting materials, namely, starting fluoroquinolones and halide salts, on 3T3 mouse fibroblasts was determined. Figure 4 plots the relative 3T3 cell viability in the presence of the starting materials and the FQ–OSILs at 10 µM.
0.54 ± 0.02 [Error! Bookmark not 0.84 ± 0.02 [Error! Bookmark not
Norfloxacin defined.] defined.]
(0.37 ± 0.02) [Error! Bookmark not (0.85 ± 0.04) [Error! Bookmark not […]
Critical micelle concentration
The critical micelle concentrations of the organic salts based on fluoroquinolones with cations bearing surfactant properties were calculated using ionic conductivity measurements. […] The cell temperature was measured by means of a PT100 platinum resistance sensor coupled to a Keithly 199 System […]
The probe was previously calibrated against high accuracy mercury thermometers at different temperatures. […] After each addition, the mixture was stirred to obtain a homogeneous solution, and the ionic conductivity was measured. […]
For subculture, 3T3 cells were dissociated using trypsin-EDTA (Sigma, USA), splitted 1:5 ratio, and seeded into Petri dishes with 25 cm2 of growth area. […] Cytotoxicity was evaluated on 3T3 cells' viability after cells reached total confluence. […]

[1] = test system: Klebsiella pneumoniae (ATCC 11296); experiment: Antimicrobial activity (growth, OD 600 nm); details: for IC50: Klebsiella pneumoniae
[2] = test system: Staphylococcus aureus (ATCC 25923); experiment: Antimicrobial activity (growth, OD 600 nm)
[3] = test system: Bacillus subtilis (ATCC 6633); experiment: Antimicrobial activity (growth, OD 600 nm)

**Q.** How did the IC50 (3T3 mouse fibroblasts; NIH3T3) turn out when CCCCCCCCCCCCCCCC[n+]1ccccc1.[Cl-] [[C16Py]Cl, reference compound] was run?
**A.** 5.46 µM

**Q.** And the IC50 (3T3 mouse fibroblasts; NIH3T3, 24 h)?
**A.** 5.46 µM

**Q.** What about the “growth inhibition K. pneumoniae” value ([1]; 10 µM, 6 h) of the same molecule?
**A.** effective antimicrobial effect

**Q.** What about the IC50 ([1]; ATCC11296, read-out: IC50 K. pneumoniae, 0.001–10 µM) of the same molecule?
**A.** 2.33 µM

**Q.** What about the IC50 ([1]; ATCC11296, read-out: IC50 K. pneumoniae, see Table S2) of the same molecule?
**A.** 2.55 µM

**Q.** And the “growth inhibition S. aureus” value ([2]; 10 µM, 6 h)?
**A.** effective antimicrobial effect

**Q.** What about the IC50 ([2]; Staphylococcus aureus, ATCC25923, read-out: IC50 S. aureus) of the same molecule?
**A.** 3.25 µM

**Q.** What about the “growth inhibition B. subtilis” value ([3]; 10 µM, 6 h) of the same molecule?
**A.** effective antimicrobial effect

**Q.** What about the IC50 ([3]; Bacillus subtilis, ATCC6633, read-out: IC50 B. subtilis) of the same molecule?
**A.** 2.55 µM
